Among the data in publication PMC4686900 are binding values, retold here.

The chains behind the UniProt entries cited, without tags or fusion partners.
UniProt O08586: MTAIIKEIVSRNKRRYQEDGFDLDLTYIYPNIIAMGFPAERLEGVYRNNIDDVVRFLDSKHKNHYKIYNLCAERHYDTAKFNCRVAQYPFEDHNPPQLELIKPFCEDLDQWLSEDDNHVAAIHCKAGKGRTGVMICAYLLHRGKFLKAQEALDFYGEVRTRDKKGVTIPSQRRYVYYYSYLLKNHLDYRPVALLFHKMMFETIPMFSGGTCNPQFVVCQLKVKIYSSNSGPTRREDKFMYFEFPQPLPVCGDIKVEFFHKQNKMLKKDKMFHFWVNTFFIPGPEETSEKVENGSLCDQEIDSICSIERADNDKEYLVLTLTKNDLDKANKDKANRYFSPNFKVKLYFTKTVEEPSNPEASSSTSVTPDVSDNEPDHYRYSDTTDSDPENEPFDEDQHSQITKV
UniProt P60484: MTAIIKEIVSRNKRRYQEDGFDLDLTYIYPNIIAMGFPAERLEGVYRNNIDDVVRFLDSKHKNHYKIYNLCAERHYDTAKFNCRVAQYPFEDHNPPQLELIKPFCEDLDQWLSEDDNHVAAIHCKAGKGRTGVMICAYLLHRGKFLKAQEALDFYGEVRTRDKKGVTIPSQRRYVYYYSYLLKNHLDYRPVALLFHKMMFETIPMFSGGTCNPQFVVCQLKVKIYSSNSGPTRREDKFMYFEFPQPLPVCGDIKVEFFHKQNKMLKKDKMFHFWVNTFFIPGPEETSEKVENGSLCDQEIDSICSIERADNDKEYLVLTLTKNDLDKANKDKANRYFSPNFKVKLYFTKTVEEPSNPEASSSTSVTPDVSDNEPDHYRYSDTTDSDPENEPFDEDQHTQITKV

Assay [1] has as its target endogenous PTEN of 3T3-L1 cells (mouse (endogenous in 3T3-L1)) (UniProt O08586). The assay can be described thus: co-IP; endogenous proteins; 3T3-L1 cells differentiated for 8 days, lysed and prepared for immune precipitation; with and without insulin stimulation (interaction increased by insulin).
For assay [2], the target named is phosphatase and tensin homology containing (PTEN) lipid phosphatase, expression construct with C-terminal FLAG tag (UniProt P60484). The assay can be described thus: condition: only with the PI3K inhibitor LY294002 (10 μM), after insulin stimulation; co-IP; 293T cells co-transfected with FLAG-tagged PTEN and ECSCR; insulin stimulation in the presence of the PI3K inhibitor LY294002 (10 μM).

For assay [3] the target is unchanged. The assay can be described thus: co-IP; 293T cells co-transfected with FLAG-tagged PTEN and full-length or cytoplasmic truncated ECSCR; anti-FLAG immune precipitation; lysis in 10 mM HEPES, 0.1% Triton X100 with protease and phosphatase inhibitors; cells unstimulated, stimulated with insulin (association increased) or isoproterenol (reduced), or given the PKA inhibitor cAMPS-Rp (100 μM, no block).

No constants are given. Whether binding was seen depends on the method and setting. Binding seen in cells or lysates may run through a third protein. Some binding calls cover weakened binding; strength is not graded here.

B1: endogenous ECSCR of 3T3-L1 cells (protein, UniProt Q3TZW0 19-214)
chain: QPTTTQTSQEILQKSSQVSLVSNQPVTPRSSTMDKQSLSLPDLMSFQPQKHTLGPGTGTPERSSSSSSSSSSRRGEASLDATPSPETTSLQTKKMTILLTILPTPTSESVLTVAAFGVISFIVILVVVVIILVSVVSLRFKCRKNKESEDPQKPGSSGLSESCSTANGEKDSITLISMRNINVNNSKGSMSAEKIL
B1: the binding result in assay [1] is “binds”.

B2: Endothelial Cell Surface expressed Chemotaxis and apoptosis Regulator (ECSCR), full-length, human cDNA construct (protein, UniProt Q19T08 25-205)
chain: QPTMTQTSSSQGGLGGLSLTTEPVSSNPGYIPSSEANRPSHLSSTGTPGAGVPSSGRDGGTSRDTFQTVPPNSTTMSLSMREDATILPSPTSETVLTVAAFGVISFIVILVVVVIILVGVVSLRFKCRKSKESEDPQKPGSSGLSESCSTANGEKDSITLISMKNINMNNGKQSLSAEKVL
Turning to B2, the binding result in assay [2] is “no binding”; in assay [3], “binds”.
